Data taken from PMC13434269.
No constants are given. Whether binding was seen depends on the method and setting. Binding seen in cells or lysates may run through a third protein. Here binding means that the protein was enriched with, or labelled near, the bait; the list need not be complete. Each block holds one molecule with its values, some of them ahead of it.

The chains behind the UniProt entries cited, without tags or fusion partners.
UniProt Q8VBV3: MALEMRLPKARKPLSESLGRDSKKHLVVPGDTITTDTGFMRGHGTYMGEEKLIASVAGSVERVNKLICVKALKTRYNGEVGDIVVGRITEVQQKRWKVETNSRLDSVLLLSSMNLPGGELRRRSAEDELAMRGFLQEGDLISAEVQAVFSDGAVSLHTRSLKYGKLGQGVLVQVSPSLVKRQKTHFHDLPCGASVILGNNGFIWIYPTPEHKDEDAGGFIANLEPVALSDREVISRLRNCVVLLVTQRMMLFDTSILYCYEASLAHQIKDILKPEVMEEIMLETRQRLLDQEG
UniProt Q9D0M0: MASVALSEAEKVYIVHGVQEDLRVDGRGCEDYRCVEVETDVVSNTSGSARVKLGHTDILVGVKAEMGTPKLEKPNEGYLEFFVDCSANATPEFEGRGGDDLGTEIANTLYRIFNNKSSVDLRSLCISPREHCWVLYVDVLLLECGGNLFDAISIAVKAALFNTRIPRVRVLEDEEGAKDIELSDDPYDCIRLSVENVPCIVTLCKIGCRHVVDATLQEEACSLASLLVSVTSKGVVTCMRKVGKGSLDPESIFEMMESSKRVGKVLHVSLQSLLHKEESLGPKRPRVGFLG
UniProt Q8BTW3: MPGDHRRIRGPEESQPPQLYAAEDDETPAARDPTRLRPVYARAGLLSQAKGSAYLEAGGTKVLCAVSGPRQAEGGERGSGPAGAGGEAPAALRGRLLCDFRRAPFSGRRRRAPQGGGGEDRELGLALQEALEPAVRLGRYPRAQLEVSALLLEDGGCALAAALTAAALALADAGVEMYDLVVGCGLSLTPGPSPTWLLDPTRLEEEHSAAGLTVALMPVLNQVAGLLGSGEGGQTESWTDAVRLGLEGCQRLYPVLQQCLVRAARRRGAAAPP
UniProt Q9D753: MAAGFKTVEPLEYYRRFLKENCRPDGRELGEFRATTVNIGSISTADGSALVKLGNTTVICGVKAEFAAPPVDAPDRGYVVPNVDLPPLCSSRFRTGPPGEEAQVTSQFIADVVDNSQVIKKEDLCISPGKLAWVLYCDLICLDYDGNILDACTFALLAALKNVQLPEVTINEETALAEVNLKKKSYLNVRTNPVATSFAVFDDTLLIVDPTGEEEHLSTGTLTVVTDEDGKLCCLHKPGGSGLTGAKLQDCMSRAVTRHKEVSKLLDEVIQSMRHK
UniProt Q9JHI7: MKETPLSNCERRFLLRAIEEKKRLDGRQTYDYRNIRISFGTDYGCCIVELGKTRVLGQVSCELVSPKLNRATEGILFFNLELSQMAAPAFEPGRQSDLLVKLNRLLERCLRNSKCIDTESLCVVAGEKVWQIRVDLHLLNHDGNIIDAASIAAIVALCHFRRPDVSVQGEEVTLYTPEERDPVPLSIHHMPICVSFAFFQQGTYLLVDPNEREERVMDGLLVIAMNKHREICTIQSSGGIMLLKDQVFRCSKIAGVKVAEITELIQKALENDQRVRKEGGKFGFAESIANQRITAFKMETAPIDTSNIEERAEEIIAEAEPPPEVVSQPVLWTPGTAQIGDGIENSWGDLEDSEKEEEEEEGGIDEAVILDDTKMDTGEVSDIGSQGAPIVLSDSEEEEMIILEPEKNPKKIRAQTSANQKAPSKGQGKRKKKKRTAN
UniProt Q7TQK4: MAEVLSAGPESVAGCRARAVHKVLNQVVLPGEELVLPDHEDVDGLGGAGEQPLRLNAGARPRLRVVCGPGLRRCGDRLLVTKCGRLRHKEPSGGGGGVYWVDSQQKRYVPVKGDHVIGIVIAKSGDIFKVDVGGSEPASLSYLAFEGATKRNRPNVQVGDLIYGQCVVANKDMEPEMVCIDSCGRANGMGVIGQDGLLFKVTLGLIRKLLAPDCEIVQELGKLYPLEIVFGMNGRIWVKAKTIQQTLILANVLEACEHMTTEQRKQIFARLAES
UniProt Q921I9: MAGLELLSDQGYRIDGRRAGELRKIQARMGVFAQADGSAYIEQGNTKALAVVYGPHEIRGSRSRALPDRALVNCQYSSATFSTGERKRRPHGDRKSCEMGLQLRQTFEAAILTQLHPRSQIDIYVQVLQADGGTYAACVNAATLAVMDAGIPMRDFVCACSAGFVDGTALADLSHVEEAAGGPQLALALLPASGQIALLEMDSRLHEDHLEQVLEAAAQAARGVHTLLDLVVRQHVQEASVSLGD
UniProt Q9CRA8: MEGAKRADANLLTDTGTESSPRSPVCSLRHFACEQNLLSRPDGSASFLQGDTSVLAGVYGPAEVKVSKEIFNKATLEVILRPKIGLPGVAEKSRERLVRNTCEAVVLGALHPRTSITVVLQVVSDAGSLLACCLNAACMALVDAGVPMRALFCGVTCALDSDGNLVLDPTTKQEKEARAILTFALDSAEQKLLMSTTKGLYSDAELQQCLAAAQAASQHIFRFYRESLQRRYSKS

Columns and labels:
[1] = biological target: Exosc2-HA-mNeonGreen (mouse) (UniProt Q8VBV3); assay: affinity purification with mass spectrometry; whole-cell extract of Exosc2-HA-mNeonGreen mESCs separated on Superdex 200 Increase; fractions A7-A10, B3-B6 and B8-B11 pooled, Igepal CA-630 adjusted to 1%, anti-HA magnetic beads, against the untagged parental control, n = 3
Exosc7-3xFLAG (mouse) = Exosc7-3xFLAG (mouse) (UniProt Q9D0M0); assay: affinity purification with mass spectrometry; FLAG magnetic beads on lysate of mESCs after 0, 60, 75, 90, 120 min and 24 h of doxycycline induction of Exosc7-3xFLAG, against parental cells
[2] = biological target: Exosc2-mCherry-V5 (mouse) (UniProt Q8VBV3); assay: affinity purification with mass spectrometry; anti-V5 immunoprecipitation from lysate of mESCs expressing Exosc2-mCherry-V5 against the V5-mCherry control, on-bead digestion, n = 3

- binding [1]: binds
- binding (Exosc7-3xFLAG (mouse)): binds
- binding [2]: binds
Molecule: Exosc6 (from UniProt Q8BTW3 1-273)

- binding [1]: binds
- binding (Exosc7-3xFLAG (mouse)): binds
- binding [2]: binds
Molecule: Exosc8 (from UniProt Q9D753 1-276)

- binding [1]: binds
- binding (Exosc7-3xFLAG (mouse)): binds
- binding [2]: binds
Molecule: Exosc9 (from UniProt Q9JHI7 1-438)

- binding [2]: binds weakly
B1: Dis3 (enzyme, UniProt Q9CSH3 1-958)
chain: MLRSKTFLKKTRAGGVVKIVREHYLRDDIGCGAPACSACGGAHAGPALELQPRDQASSLCPWPHYLLPDTNVLLHQIDVLEHPAIRNVIVLQTVMQEVRNRSAPIYKRIRDVTNNQEKHFYTFTNEHHKETYIEQEQGENANDRNDRAIRVAAKWYNEHLKRVAADSQLQVILITNDRKNKEKAVQEGIPAFTCEEYVKSLTANPELIDRLAYLSDEMNEIESGKIIFSEHLPLSKLQQGIKSGSYLQGTFRASRENYLEATVWIHGDKEEEKEILIQGIKHLNRAVHEDIVAVELLPRSQWVAPSSVVLDDEGQNEDDVEKDEERELLLKTAVSEKMLRPTGRVVGIIKRNWRPYCGMLSKSDIKESRRHLFTPADKRIPRIRIETRQASALEGRRIIVAIDGWPRNSRYPNGHFVKNLGDVGEKETETEVLLLEHDVPHQPFSQAVLSFLPRMPWSITEEDMKNREDLRHLCVCSVDPPGCTDIDDALHCRELSNGNLEVGVHIADVSHFIRPGNALDQESARRGTTVYLCEKRIDMVPELLSSNLCSLRSNVDRLAFSCIWEMNHNAEILKTRFTKSVINSKASLTYAEAQMRIDSAAMNDDITTSLRGLNQLAKILKKGRIEKGALTLSSPEIRFHMDSETHDPIDLQTKELRETNSMVEEFMLLANISVAKKIHEEFSEHALLRKHPAPPPSNYDILVKAAKSKNLQIKTDTAKSLADSLDRAESPDFPYLNTLLRILATRCMMQAVYFCSGMDNDFHHYGLASPIYTHFTSPIRRYADIIVHRLLAVAIGADCTYPELTDKHKLSDICKNLNFRHKMAQYAQRASVAFHTQLFFKSKGIVSEEAYILFVRKNAIVVLIPKYGLEGTVFFEEKDKPKPRLAYDDEIPSLRIEGTVFHVFDKVKVKITLDSSNLQHQKIRMALVEPQIPGINIPPNVADKALTAPGGKKRKLEK

The next lines start with the molecule.

Molecule: Exosc1 (from UniProt Q9DAA6-1 1-195)
- binding [1]: binds
- binding (Exosc7-3xFLAG (mouse)): binds
- binding [2]: binds

Molecule: Exosc2 (from UniProt Q8VBV3 1-293)
- binding (Exosc7-3xFLAG (mouse)): binds

Molecule: Exosc3 (from UniProt Q7TQK4 1-274)
- binding [1]: binds
- binding (Exosc7-3xFLAG (mouse)): binds
- binding [2]: binds

Molecule: Exosc4 (from UniProt Q921I9 1-245)
- binding (Exosc7-3xFLAG (mouse)): binds

Molecule: Exosc5 (from UniProt Q9CRA8 1-235)
- binding (Exosc7-3xFLAG (mouse)): binds

Molecule: Exosc7 (from UniProt Q9D0M0 1-291)
- binding [1]: binds
- binding [2]: binds

B2: Exosc10 (enzyme, UniProt P56960 1-887)
chain: MAPPSPREHQSAPATSATKPDAEMVLPGFPDADSFVKFALGSVVAVTKASGGLPQFGDEYDFYRSFPAFQAFCETQGDRLLQCMSRVMQYHGCRSNIKDRSKVTELEDKFDLLVDTNDVILERVGMLLDEASGVNKHQQPVLPAGLQVPKTIVSSWNRKAGEYGKKAKSETFRLLHAKNIVRPQLRFREKIDNSNTPFLPKIFVKPNARKPLPLALSKERRERPQDRPEDLDVPPALADFIHQQRTQQVEQDMFAHPYQYELDHFTPPQSVLQRPKPQLYRAVGETPCHLVSSLDELVELNEKLLGCQEFAVDLEHHSYRSFLGLTCLMQISTRTEDFIVDTLELRSDMYILNESLTDPAIVKVFHGADSDIEWLQKDFGLYVVNMFDTHQAARLLNLARHSLDHLLRLYCGVESNKQYQLADWRIRPLPEEMLSYARDDTHYLLYIYDRMRLELWERGNHQPVQLQVVWQRSRDICLKKFVKPIFTDESYLELYRKQKKHLNSQQLTAFQLLFAWRDKTARREDESYGYVLPNHMMLKIAEELPKEPQGIIACCNPVPPLVRQQINEMHLLIQQAREMPLLKSENAAGVRKSGPLPSAERLENDLFGPHDCSHAPPDNYQNTSTDGTLPLQKQPSLFTEGKEETSVDAGCLLATAVITLFSEPNTEEGGKTPLTVAQKKAQNIMQSFENPFRMFLPSLEHKAHISQAAKFDPSSKIYEISNRWKLASQVQVQKEPKEATKKKVAEQTAAREEAKEEAAAGVLEQAIPVRQQAALENATKKRERATSDLRTIEQKQEKKRLKSSKKAKDPDPPGKDFSPYDYSQSDFRAFAGDSKSKPSSQFDPNKLAPSGKKGVGAKKCKQSVGNKSMSFAVGKSDRGFRHNWPKR
- binding [2]: binds

B3: Mphosph6 (protein, UniProt Q9D1Q1 1-161)
chain: MASERKTKLSKNLLRMKFMQRGLDSETKKQLEEEERKMISDEHWYLDLPELKEKESFIVEEQSFSLCEDLLYGRMSFRGFNPEVEKLMLQMNSKNRAEAAEEDETVEVDVSDEEMARRYETLVGTIGKKFVKKRDRANYEEDENGTIKAIKPKKMFLKPQD
- binding [1]: binds

B4: C1d (protein, UniProt O35473 1-141)
chain: MAGEEMNEDYPVEIHESLTALESSLGAVDDMLKTMMAVSRNELLQKLDPLEQAKVDLVSAYTLNSMFWVYLATQGVNPKEHPVKQELERIRVYMNRVKEITDKKKAAKLDRGAASRFVKNALWEPKAKSTPKVANKGKSKH
- binding [1]: binds
